Test results: US20130344070A1
No constants are given. Whether binding was seen depends on the method and setting. Some results given as binding are weak or reduced against the parent protein; the word gives no strength.

Protein sequences, listed by entry. Tags and fused reporters are not part of them.
UniProt P41597: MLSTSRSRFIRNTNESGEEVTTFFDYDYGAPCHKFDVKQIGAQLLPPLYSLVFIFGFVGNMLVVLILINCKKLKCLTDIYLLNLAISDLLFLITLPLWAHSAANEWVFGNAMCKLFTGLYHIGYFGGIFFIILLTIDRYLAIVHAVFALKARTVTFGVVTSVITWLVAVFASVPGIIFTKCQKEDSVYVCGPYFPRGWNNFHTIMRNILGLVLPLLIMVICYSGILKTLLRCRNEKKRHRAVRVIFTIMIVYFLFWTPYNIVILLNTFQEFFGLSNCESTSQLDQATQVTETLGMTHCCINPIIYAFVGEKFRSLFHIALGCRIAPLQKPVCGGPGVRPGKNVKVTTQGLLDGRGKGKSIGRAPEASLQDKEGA

Target: human CCR2 (CC-Chemokine Receptor 2) (human) (UniProt P41597)
Experiment: flow cytometry on CHO-huCCR2 cells, antibody at 5, 10 and/or 20 ug/ml

Row | Binder | binding
1 | 42E8 (antibody, V domains shown) VH: QVQLVQSGAEVKKPGASVKVSCKAYGYTFTNYYLHWVRQAPGQGLEWMGIINPSGGNTNYAQKFKGRVTMTRDTSTNTVYMEMSSLRSEDTAVYYCARGGGGAFDIWGQGTMVTVSS VL: DIVMTQSPLSSPVTLGQPASISCRSSQSLVHSDGNTYLSWLQQRPGQPPRLLIYRTSKRFSGVPDRFSGSGSGTDFTLKISRVEVEDVGVYYCMQATQFPRTFGQGTKVEIK | binds
2 | D1-5/LO (antibody, V domains shown) VH: QVQLVQSGAEVKKPGASVKVSCKASGYTFTGYHMHWVRQAPGQGLEWMGWINPNGGVTSYAQKFQGRVTMTRDTSTSTVYMELSSLRSEDTAVYYCATGGFGYWGEGTLVTVSS VL: LPVLTQPPSVSKGLRQTATLTCTGNSNNVGNQGAAWLQQHQGQPPKLLSYRNHNRPSGVSERFSPSRSGDTSSLTITGLQPEDEADYYCLAWDSSLRAFVFGTGTKLTVL | binds
3 | D1-8/LO (antibody, V domains shown) VH: QVQLVQSGAEVKKPGASVKVSCKASGYTFTGYHMHWVRQAPGQGLEWMGIINPSGGSTSYAQKFQGRVTMTRDTSTSTVYMELSSLRSEDTAVYYCATGSGGGTMDVWGEGTLVTVSS VL: LPVLTQPPSVSKGLRQTATLTCTGNSNNVGNQGAAWLQQHQGQPPKLLSYRNHNRPSGVSERFSPSRSGDTSSLTITGLQPEDEADYYCLAWDSSLRAFVFGTGTKLTVL | binds
4 | 42D4 (antibody, V domains shown) VH: EVQLVESGGELVQPGGSLRLSCAASGFTFSSFAMHWVRQAPGKGLEYVSGISSNGGSTYYANSVKGRFTISRDNSKNTLSLQMGSLRPEDMAVYYCARGGMDVWGQGTTVTVSS VL: QSVLTQPPSVSKGLRQTATLTCTGNSNNVGNQGAAWLQQHQGHPPKLLSYRNHNRPSGISERFSASTSGSTASLTIVGLQPEDEADYYCLAWDTSLHAFVFGSGTKLTVL | binds

Results, then the binder that gave them:

Row | binding | Binder
5 | binds | 42F1 (antibody, V domains shown) VH: QLVESGGDLVQPGGFLRLSCAASGFTFSSYSMNWVRQAPGKGLEWVANIKQDGSEKYYVDSVKGRFTISRDNAKNSLYLQMNSLRAEDTAVYYCARAPGSYWGQGTLVTVSS VL: QSVVTQPPSVSAAPGQKVTIACSGSSSNIGTHYTSWYQQLPGAAPKLLIYGSSKRPSGIPDRFSGSKSGTSATLGITGLQTGDEAEYYCATWDSRLNVGVFGGGTKLTVL
6 | binds | 55E4 (antibody, V domains shown) VH: EVQLVESGAEVKKPGASVKVSCKASGYTFTSYYMHWVRQAPGRGLEWMGIINPSSGSTSYAQKFQGRVTMTRDTSTSTVYMELSSLRSEDTAVYYCARGQGTAIRAFDIWGQGTMVTVSS VL: DIVMTQTPLSSPVTLGQPAAISCRSSQSLVNSDGNTYLSWLQQRPGQPPRVLINKVSNRLSGVPDRFSGSGAGTDFTLKISRVEAEDVGVYYCMQATEFPWTFGQGTRLEIK
7 | binds | 55F5 (antibody, V domains shown) VH: EVQLVQSGAEVKKPGASVKVSCKASGYTFTSYYMHWVRQAPGRGLEWMGIINPSSGSTSYAQKFQGRVTMTRDTSTSTVYMELSSLRSEDTAVYYCARGQGTAIRAFDIWGQGTMVTVSS VL: DVVMTQSPLSSPVTLGQPASISCKSSQTLVHNDGNSYLSWLHQRPGQPPRLLIYKVSNRFSGVPDRFSGSGAGTDFTLRIGRVEAEDVGVYYCMQATQFPYTFGQGTKLEIK
8 | binds | D1-3/LO (antibody, V domains shown) VH: QVQLVQSGAEVKKPGASVKVSCKASGYTFTGYHMHWVRQAPGQGLEWMGWINPNSGVTKYAQKFQGRVTMTRDTSTSTVYMELSSLRSEDTAVYYCATGSGGGTMDVWGEGTLVTVSS VL: LPVLTQPPSVSKGLRQTATLTCTGNSNNVGNQGAAWLQQHQGQPPKLLSYRNHNRPSGVSERFSPSRSGDTSSLTITGLQPEDEADYYCLAWDSSLRAFVFGTGTKLTVL
9 | binds | 43F12 (antibody, V domains shown) VH: QVQLVESGGGLVQPGRSLRLSCAASGFSFDDYAMHWVRQAPGKGLEWVSLIYSGGKTYYADSVKGRFTISRDSSKNTLYLQMNTLRPEDTAVYYCARNIGNWGQGTLVTVSS VL: QSVLTQPPSVSKDLRQTATLTCTGNSNNVGNQGAAWLQQHQGHPPKFLSDRYNNRPSGISERFSASRSGNTASLTITGVQPEDEADYYCSAWDTSLNALVFGGGTKLTVL
